These results are taken from the supplement of paper PMC10849652.

Amino acid sequences for entries named in this document (tags omitted). A change or cut given only in a name is not applied to a line headed by its entry.
UniProt Q15800: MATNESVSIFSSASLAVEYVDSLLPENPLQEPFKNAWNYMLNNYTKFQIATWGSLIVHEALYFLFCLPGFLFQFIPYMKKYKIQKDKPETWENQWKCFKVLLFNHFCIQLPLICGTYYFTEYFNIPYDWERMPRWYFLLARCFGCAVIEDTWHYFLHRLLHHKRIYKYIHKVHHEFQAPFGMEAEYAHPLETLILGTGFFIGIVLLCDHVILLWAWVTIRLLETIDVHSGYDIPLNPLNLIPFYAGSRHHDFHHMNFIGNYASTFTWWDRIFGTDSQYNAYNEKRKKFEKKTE
UniProt Q96DH6: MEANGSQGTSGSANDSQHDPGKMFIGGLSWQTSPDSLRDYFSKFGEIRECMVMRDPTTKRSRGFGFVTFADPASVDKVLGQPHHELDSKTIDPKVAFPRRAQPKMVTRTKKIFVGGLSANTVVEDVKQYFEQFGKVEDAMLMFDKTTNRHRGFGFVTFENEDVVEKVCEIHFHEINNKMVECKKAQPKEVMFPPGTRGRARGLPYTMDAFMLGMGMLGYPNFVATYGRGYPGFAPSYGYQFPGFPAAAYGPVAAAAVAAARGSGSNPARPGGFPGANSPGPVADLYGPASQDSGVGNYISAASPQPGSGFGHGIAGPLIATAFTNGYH
UniProt Q96E11: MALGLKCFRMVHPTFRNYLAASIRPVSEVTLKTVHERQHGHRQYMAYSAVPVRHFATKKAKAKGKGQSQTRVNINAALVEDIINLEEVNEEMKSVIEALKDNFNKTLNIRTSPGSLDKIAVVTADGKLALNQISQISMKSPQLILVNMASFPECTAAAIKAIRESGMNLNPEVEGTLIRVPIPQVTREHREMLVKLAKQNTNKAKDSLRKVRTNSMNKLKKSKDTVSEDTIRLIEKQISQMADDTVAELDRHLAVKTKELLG
UniProt Q13330: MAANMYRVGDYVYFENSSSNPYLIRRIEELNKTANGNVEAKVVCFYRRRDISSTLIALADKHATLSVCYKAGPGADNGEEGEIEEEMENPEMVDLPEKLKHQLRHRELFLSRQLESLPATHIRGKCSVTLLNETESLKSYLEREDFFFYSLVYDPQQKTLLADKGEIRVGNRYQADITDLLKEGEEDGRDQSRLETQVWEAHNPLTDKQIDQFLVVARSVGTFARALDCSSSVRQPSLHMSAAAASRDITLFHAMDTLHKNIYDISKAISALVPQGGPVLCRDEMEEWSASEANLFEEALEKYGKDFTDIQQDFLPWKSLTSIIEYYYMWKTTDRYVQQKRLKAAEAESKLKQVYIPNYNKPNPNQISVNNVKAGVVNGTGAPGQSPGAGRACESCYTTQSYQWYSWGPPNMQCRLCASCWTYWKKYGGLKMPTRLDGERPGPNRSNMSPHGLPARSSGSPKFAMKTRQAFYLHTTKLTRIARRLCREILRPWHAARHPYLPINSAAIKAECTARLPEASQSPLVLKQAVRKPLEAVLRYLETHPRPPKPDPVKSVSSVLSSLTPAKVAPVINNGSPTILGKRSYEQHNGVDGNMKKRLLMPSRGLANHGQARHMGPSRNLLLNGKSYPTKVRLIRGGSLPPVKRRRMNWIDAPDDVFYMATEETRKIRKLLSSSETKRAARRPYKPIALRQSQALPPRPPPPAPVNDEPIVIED
UniProt Q9UBK8: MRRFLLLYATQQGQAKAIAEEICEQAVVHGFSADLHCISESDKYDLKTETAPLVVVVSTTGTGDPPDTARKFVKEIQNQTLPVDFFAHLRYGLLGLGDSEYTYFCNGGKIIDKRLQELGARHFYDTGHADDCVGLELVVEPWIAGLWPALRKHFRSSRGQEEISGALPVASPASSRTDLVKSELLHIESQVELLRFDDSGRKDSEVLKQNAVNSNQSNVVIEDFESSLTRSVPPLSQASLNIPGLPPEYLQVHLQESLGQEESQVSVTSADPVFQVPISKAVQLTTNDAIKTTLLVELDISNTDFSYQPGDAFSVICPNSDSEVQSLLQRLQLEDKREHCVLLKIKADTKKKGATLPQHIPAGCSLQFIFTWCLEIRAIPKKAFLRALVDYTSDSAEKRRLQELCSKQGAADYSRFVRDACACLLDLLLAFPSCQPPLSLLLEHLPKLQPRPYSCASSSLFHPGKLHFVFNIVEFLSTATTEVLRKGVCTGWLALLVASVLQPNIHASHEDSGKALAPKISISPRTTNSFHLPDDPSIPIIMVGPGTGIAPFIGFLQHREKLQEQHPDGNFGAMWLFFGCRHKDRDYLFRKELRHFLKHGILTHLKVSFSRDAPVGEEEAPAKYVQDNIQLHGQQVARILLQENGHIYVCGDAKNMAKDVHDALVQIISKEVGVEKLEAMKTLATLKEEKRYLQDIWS
UniProt Q9P0P8: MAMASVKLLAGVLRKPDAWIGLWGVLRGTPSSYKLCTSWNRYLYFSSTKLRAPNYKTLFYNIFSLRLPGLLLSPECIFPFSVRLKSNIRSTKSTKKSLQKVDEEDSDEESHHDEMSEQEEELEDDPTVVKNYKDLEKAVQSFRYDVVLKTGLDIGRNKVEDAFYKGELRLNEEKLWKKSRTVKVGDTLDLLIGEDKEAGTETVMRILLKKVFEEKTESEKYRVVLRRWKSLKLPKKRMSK
MTHFD1, A0A384N5Y3, UniProt A0A384N5Y3, whole entry, looked up: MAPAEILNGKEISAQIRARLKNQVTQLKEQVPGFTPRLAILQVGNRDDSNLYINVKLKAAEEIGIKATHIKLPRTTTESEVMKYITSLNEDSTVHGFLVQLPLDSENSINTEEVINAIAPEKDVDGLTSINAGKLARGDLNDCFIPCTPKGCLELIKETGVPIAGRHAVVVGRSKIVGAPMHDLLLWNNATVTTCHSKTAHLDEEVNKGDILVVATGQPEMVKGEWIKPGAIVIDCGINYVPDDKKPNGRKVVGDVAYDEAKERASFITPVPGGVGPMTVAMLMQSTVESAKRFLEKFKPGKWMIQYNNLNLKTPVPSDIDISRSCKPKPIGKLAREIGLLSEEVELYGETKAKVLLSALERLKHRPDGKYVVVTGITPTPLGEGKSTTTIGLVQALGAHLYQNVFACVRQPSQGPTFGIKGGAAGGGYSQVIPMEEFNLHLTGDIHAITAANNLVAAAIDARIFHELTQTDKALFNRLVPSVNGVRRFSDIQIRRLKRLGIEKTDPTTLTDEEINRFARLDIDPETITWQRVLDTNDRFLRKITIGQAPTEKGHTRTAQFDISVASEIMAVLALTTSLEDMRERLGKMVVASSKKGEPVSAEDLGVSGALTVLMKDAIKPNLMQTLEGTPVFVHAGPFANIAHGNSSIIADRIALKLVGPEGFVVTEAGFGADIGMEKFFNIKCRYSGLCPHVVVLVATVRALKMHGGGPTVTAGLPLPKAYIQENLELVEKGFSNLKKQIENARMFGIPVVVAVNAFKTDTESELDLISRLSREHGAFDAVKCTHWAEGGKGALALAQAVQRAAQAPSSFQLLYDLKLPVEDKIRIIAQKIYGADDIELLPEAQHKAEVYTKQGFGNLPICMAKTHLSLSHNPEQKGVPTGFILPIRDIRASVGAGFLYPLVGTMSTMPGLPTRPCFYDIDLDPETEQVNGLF
UniProt Q2M296: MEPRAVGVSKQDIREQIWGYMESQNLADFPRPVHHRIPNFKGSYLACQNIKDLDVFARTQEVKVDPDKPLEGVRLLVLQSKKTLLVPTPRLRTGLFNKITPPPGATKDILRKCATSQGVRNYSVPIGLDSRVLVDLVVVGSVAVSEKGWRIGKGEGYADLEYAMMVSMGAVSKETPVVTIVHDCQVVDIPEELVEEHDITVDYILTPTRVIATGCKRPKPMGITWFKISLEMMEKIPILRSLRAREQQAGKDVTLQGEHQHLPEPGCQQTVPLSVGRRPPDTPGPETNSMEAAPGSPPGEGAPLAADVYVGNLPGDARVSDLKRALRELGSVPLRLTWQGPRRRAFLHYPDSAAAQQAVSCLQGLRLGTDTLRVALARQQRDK
UniProt Q9UGC7: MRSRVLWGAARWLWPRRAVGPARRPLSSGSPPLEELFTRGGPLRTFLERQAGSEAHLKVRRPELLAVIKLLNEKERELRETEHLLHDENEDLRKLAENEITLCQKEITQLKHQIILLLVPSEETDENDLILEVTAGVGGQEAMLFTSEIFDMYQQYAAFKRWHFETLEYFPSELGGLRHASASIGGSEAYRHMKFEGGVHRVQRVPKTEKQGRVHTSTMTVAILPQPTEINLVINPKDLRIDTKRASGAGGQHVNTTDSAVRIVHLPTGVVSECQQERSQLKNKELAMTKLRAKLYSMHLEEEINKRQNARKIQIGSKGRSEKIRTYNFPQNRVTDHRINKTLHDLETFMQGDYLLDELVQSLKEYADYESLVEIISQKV
UniProt Q9Y3D2: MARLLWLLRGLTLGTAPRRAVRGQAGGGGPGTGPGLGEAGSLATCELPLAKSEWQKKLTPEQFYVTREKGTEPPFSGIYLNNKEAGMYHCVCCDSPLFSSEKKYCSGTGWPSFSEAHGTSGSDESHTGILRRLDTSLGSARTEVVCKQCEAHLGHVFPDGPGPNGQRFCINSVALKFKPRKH
UniProt O94776: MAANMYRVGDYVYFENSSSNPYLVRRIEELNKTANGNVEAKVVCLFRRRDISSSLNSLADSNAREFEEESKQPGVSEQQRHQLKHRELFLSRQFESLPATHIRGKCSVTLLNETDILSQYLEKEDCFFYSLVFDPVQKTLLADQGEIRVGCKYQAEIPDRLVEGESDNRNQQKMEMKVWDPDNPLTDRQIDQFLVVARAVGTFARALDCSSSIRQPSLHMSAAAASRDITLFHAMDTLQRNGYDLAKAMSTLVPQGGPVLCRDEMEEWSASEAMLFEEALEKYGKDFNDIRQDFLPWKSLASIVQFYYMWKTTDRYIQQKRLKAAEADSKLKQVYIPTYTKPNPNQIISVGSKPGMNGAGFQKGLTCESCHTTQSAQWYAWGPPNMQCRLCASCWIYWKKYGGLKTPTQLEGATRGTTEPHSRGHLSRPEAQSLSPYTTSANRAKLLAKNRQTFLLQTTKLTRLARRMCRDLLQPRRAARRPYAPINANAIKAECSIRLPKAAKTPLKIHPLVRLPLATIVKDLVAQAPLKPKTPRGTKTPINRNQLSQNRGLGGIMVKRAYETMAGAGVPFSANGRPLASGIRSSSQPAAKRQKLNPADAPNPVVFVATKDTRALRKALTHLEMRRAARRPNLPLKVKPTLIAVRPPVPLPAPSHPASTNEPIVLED
UniProt P13640: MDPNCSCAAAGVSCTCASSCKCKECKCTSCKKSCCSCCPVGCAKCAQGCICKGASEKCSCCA
UniProt P52701: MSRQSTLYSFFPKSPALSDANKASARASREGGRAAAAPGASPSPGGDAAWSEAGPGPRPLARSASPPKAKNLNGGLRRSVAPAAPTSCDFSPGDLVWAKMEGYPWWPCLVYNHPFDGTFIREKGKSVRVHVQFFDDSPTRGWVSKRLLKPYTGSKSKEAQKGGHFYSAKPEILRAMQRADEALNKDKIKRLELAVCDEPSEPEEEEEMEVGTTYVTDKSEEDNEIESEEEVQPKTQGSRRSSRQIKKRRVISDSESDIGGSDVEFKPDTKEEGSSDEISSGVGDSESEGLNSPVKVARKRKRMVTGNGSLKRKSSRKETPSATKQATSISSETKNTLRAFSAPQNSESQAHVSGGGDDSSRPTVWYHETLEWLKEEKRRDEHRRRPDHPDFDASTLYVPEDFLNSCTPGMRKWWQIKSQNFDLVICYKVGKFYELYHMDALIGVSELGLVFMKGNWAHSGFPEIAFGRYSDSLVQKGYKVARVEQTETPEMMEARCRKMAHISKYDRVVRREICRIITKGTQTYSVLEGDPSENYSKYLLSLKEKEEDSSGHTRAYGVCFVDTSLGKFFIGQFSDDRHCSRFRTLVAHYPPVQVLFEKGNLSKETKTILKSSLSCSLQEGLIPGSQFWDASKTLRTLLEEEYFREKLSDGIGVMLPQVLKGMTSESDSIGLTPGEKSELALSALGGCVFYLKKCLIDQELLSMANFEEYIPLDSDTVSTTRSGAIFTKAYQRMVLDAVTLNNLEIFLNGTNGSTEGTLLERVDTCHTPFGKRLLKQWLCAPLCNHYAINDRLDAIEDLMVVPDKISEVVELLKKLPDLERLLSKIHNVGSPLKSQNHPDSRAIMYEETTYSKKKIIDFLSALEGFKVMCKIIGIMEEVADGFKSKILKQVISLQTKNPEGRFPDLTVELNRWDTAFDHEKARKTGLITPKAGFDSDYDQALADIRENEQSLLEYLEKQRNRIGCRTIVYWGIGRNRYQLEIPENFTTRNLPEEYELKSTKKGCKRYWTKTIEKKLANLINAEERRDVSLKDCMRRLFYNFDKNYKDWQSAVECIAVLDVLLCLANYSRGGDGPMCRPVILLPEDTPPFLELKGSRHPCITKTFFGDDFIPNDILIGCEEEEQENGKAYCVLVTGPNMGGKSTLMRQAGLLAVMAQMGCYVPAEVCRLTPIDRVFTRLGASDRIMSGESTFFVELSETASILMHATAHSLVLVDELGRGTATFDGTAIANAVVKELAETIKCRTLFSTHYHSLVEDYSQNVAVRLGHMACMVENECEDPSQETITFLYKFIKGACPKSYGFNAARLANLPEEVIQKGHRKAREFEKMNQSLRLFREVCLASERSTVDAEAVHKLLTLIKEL

This is one part of the list.

Compound in this experiment: CNc1nc(-c2ccc3c(N)n[nH]c3c2)cc(N2C[C@@H](C(=O)NC3CCCCC3)CC[C@H]2C)n1
As to the kind of experiment: log2 fold change, soluble protein after heating vs DMSO (PISA); higher = thermal stabilisation; K562 lysate, 10 uM; active = over 0.2 and 3.5 SD of the protein, either way, in both replicates (recomputed). The essentials: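 Quantification was by TMTpro 16plex LC-MS/MS with equalised channel sums, applied to the supernatant after 21,000xg for 90 min. Samples were crude K562 extract at 1 mg/mL protein in PBS pH 7.4 with 1 mM MgCl2, treated with 10 μM compound for 30 min, heated for 3 min across 48°C-58°C, pooled and brought to 0.5% NP-40 at 4°C. Values are log-two fold changes in thermal stability relative to solvent controls, from duplicates.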
Turning to MTCL1 (UniProt Q9Y4B5), the log2 fold change is inactive: 0.101. In the case of MRPS23 (UniProt Q9Y3D9), the log2 fold change is inactive: -0.036.

Consider MTMR1 (UniProt Q13613), for which the log2 fold change is inactive: -0.022. In the case of MSMO1 (UniProt Q15800), the log2 fold change is inactive: 0.015. In the case of MSI2 (UniProt Q96DH6), the log2 fold change is inactive: -0.012. With MRPS11 (UniProt P82912) the figure was inactive: -0.061; with MTOR (UniProt P42345), inactive: -0.025. For MRPL37 (UniProt Q9BZE1) the value was inactive: -0.03; for MRPL38 (UniProt Q96DV4), inactive: 0.008; for MRPS27 isoform 2 (UniProt Q92552), inactive: 0.05.

With MRRF (UniProt Q96E11), the log2 fold change is inactive: -0.02. As to MRPS6 (UniProt P82932), the log2 fold change was inactive: 0.059.

As for MRPL43 isoform 4 (UniProt Q8N983), the log2 fold change was inactive: -0.038.

As to MTA1 (UniProt Q13330), the log2 fold change was inactive: -0.01.

As to MTFR1 (UniProt Q15390), the log2 fold change is inactive: -0.01.

Take MRPS16 (UniProt Q9Y3D3): the log2 fold change is inactive: 0.057. For MTRR isoform 1 (UniProt Q9UBK8) the value was inactive: -0.035. With MTRES1 (UniProt Q9P0P8) the figure was inactive: 0.004; with MTHFD1, A0A384N5Y3, inactive: 0.002; with MT-ND4 (UniProt P03905), inactive: 0.013. For the target MTCH2 (UniProt Q9Y6C9), the log2 fold change is inactive: 0.047. With MRPS7 (UniProt Q9Y2R9) the figure was inactive: 0.021; with MTM1 (UniProt Q13496), inactive: 0.058. For the target MRPL55 isoform 2 (UniProt Q7Z7F7), the log2 fold change is inactive: 0.036.

Regarding MT-CO1 (UniProt P00395), the log2 fold change was inactive: 0.126. On to MRPS21 (UniProt P82921), for which the log2 fold change was inactive: 0.292. In the case of MRPL50 (UniProt Q8N5N7), the log2 fold change was inactive: 0.042. MTHFSD isoform 3 (UniProt Q2M296): the log2 fold change was inactive: 0.024. On to MTRF1L (UniProt Q9UGC7), for which the log2 fold change is inactive: 0.017. In the case of MSRB2 (UniProt Q9Y3D2), the log2 fold change is inactive: 0.033. Regarding MRPL9 (UniProt Q9BYD2), the log2 fold change was inactive: 0.072.

Take MRPL35 (UniProt Q9NZE8): the log2 fold change was inactive: 0.033. Take MRPS26 (UniProt Q9BYN8): the log2 fold change is inactive: -0.068. With MRPS9 (UniProt P82933) the figure was inactive: 0.044. In the case of MTA2 (UniProt O94776), the log2 fold change is inactive: -0.01. Turning to MT1G (UniProt P13640), the log2 fold change was inactive: 0.205. Turning to MSH6 (UniProt P52701), the log2 fold change was inactive: -0.032.
